Whole data set: some 33,000 sequences, median “E-score (-0.5 to 0.5)” near -0.0014, cut for the highest 2% near 0.25. The list shows a part of the results.
Target: T1, Cad1 (UniProt P24813)
T1 sequence: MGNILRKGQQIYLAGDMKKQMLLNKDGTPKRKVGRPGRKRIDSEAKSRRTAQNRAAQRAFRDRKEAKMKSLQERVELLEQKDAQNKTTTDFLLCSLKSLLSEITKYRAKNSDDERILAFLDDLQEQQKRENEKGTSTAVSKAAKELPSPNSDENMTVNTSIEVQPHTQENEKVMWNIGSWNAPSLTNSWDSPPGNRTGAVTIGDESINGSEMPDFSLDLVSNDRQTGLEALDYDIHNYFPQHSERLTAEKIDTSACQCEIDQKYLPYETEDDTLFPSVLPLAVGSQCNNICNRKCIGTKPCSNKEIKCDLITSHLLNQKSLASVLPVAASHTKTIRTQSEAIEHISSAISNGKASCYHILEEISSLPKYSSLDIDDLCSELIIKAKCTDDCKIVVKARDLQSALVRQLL
Assay: PBM E-score (8-mer binding enrichment) (E-score (-0.5 to 0.5)); higher = stronger / more preferred TF binding
Conditions: protein concentration: 100 nM; construct: GST-full length
Outline: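 For each ungapped eight-base word taken together with its reverse complement, the Universal PBM Analysis Suite assigned an E-score. Binding data came from GST-tagged yeast transcription factors, applied at about 100-200 nM, on universal all-10-mer Agilent arrays made double-stranded by primer extension. Fluorescent anti-GST marked bound protein, and scans were normalised with masliner.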

Row | Sequence | PBM E-score
1 | ATAAGTTC | 0.197
2 | CCCGACGG | 0.0649
3 | TATCGCCA | 0.127
4 | CATCACAA | 0.186
5 | AAAGCCGG | 0.137
6 | AGACATAT | 0.0919
7 | CACTCGTC | -0.0738
8 | GAACTACA | 0.0994
9 | GTGATCCA | -0.0545
10 | GGGAGCCA | -0.276
11 | AGATAGTA | 0.119
12 | AGCGGCGC | -0.138
13 | CGACATCA | 0.131
14 | GCCCTTAA | -0.124
15 | GAAGGGTC | -0.258
16 | AAAATTAA | 0.209
17 | CTTTCACA | 0.209
18 | AACAAGAG | -0.2
19 | CATGCCAC | -0.0783
20 | GCGGCCTA | -0.195
21 | CTACTCAG | 0.0115
22 | AATGCCTG | -0.149
23 | AGCGGTCC | -0.0253
24 | TACGTGAA | 0.0711
25 | CTAAGGGA | 0.0678

Row | Sequence | PBM E-score
26 | ACGCTCCC | -0.13
27 | AAGCCATA | 0.0516
28 | GAACGGTC | -0.0932
29 | TCTTTTCA | 0.123
30 | GAAGCTTA | -0.00313
31 | AACTGACA | -0.142
32 | ATTACCAC | 0.161
33 | AGGAAAAT | 0.0777
34 | AATATATC | 0.198
35 | GATTAAGA | 0.18
36 | AATACCAA | 0.214
37 | GGATCAGA | -0.077
38 | AACTAATC | 0.179
39 | CTATGTAC | 0.0085
40 | CGGCACCA | 0.0123
41 | GAGACGGC | 0.112
42 | CAGTGCCA | -0.223
43 | AGGTTTGG | -0.0844
44 | ACAAGTCC | -0.011
45 | ATCTAGAT | -0.0319
46 | GAATAACA | 0.252
47 | ATCAGTCA | 0.217
48 | ATGAACTC | 0.095
49 | CTCTTAGC | 0.00705
50 | GTGTACAA | 0.249

An excerpt of these results, as tab-separated lines.
Row	Sequence	PBM E-score
3	TATCGCCA	0.127
4	CATCACAA	0.186
5	AAAGCCGG	0.137
6	AGACATAT	0.0919
7	CACTCGTC	-0.0738
8	GAACTACA	0.0994
9	GTGATCCA	-0.0545
10	GGGAGCCA	-0.276
11	AGATAGTA	0.119
12	AGCGGCGC	-0.138
13	CGACATCA	0.131
14	GCCCTTAA	-0.124
15	GAAGGGTC	-0.258
16	AAAATTAA	0.209
17	CTTTCACA	0.209
18	AACAAGAG	-0.2
19	CATGCCAC	-0.0783
20	GCGGCCTA	-0.195
21	CTACTCAG	0.0115
22	AATGCCTG	-0.149
23	AGCGGTCC	-0.0253
24	TACGTGAA	0.0711
25	CTAAGGGA	0.0678
26	ACGCTCCC	-0.13
27	AAGCCATA	0.0516
28	GAACGGTC	-0.0932
29	TCTTTTCA	0.123
30	GAAGCTTA	-0.00313
31	AACTGACA	-0.142
32	ATTACCAC	0.161
33	AGGAAAAT	0.0777
34	AATATATC	0.198
35	GATTAAGA	0.18
36	AATACCAA	0.214
37	GGATCAGA	-0.077
38	AACTAATC	0.179
39	CTATGTAC	0.0085
40	CGGCACCA	0.0123
41	GAGACGGC	0.112
42	CAGTGCCA	-0.223
43	AGGTTTGG	-0.0844
44	ACAAGTCC	-0.011
45	ATCTAGAT	-0.0319
46	GAATAACA	0.252
47	ATCAGTCA	0.217
48	ATGAACTC	0.095
49	CTCTTAGC	0.00705
50	GTGTACAA	0.249

Part of the list above, in markdown:

| Row | Sequence | PBM E-score |
| --- | --- | --- |
| 14 | GCCCTTAA | -0.124 |
| 23 | AGCGGTCC | -0.0253 |
| 27 | AAGCCATA | 0.0516 |
| 48 | ATGAACTC | 0.095 |
| 50 | GTGTACAA | 0.249 |

The list continues.

Row | Sequence | PBM E-score
51 | AGGAGAAA | 0.0385
52 | CTCTATGA | -0.135
53 | AAATTGCG | 0.176
54 | AATAGACA | -0.0574
55 | GACCACTA | 0.0706
56 | ACCGGAGT | 0.014
57 | GGCTTTAC | 0.0524
58 | GTCTAGTA | 0.0789
59 | ATGGCTGC | -0.0208
60 | CCTAATAC | 0.013
61 | ACTAGTTA | 0.0992
62 | ACGGAACG | 0.00014
63 | TCAGAAGA | -0.0837
64 | CGCAAACA | 0.232
65 | CTTATAAA | 0.275
66 | ACGACCGC | -0.171
67 | CCCCTTGC | -0.186
68 | CAGTGGCC | 0.103
69 | CAAATAGC | 0.0423
70 | CTCCTGTA | 0.0303
71 | GGTCGAAC | 0.0512
72 | GGTAGTAA | -0.0434
73 | AAGGTCGA | 0.0663
74 | CACCGTCA | 0.0866
75 | AGATTGCG | 0.0086

Row | Sequence | PBM E-score
76 | GTATCTCA | 0.0906
77 | GCGCGCTA | 0.326
78 | GGAGAAAA | 0.0547
79 | AGATGACA | 0.139
80 | TCATCTAA | 0.0408
81 | CAGAGCTG | -0.03
82 | AATCAGAC | 0.036
83 | CTGGGAAA | -0.00187
84 | AGTCATAA | 0.0277
85 | GCCGTAAA | 0.13
86 | CATCCACG | 0.0813
87 | CCGGGGCG | -0.221
88 | CAATCGTG | -0.0267
89 | GCCATGCA | 0.0386
90 | ATTCTTTA | -0.00088
91 | CCACAACG | -0.079
92 | TATCCGGA | 0.206
93 | CGCCTTTC | -0.144
94 | CGCGTCCA | 0.0682
95 | GGATACCC | -0.0106
96 | ATAAATGA | 0.0662
97 | AGACGAAA | 0.154
98 | CCAGCGCC | -0.213
99 | AATCCCAT | -0.111
100 | GATCCCGC | 0.0576

Row | Sequence | PBM E-score
101 | CGAGATCG | 0.0639
102 | TAATTGAA | 0.0315
103 | CCGAGTCC | -0.0687
104 | AAGATGCA | 0.0982
105 | CGGGCAAC | -0.162
106 | GTACCACA | 0.0781
107 | CATAATAG | 0.0957
108 | ACGCCTGG | 0.042
109 | GTTTTTTA | 0.055
110 | AGCTTCAT | 0.106
111 | CCATATCA | -0.00962
112 | CGACCCGC | 0.0365
113 | CACTCGGC | 0.099
114 | AGTCTTTC | -0.142
115 | CCTCGGGA | -0.0314
116 | AACTACTC | 0.112
117 | CCGGTAGG | -0.106
118 | GCTTCTCA | -0.17
119 | AAGCGAAT | 0.167
120 | AACTTTAC | 0.207
121 | ATGCACCA | -0.128
122 | GCACATCC | -0.168
123 | CGTTCCGA | 0.131
124 | ACCCTACG | -0.179
125 | AGTCATAC | -0.11

Row | Sequence | PBM E-score
126 | ACCGGGAT | -0.01
127 | ACAAAGAT | 0.162
128 | AGGCTGTA | -0.0168
129 | CGTACCCC | 0.14
130 | GTCGCAAA | -0.0126
131 | ATCCTCTC | 0.0816
132 | GGGAGGCA | -0.227
133 | AATTCCTA | 0.174
134 | CTAGGCAG | -0.145
135 | ACATTATC | 0.274
136 | CGACCAGC | -0.00892
137 | CCACAACA | -0.227
138 | ACATGGAA | 0.0464
139 | ACACCGGT | -0.0648
140 | GAGTCACA | -0.0761
141 | ACGGTACC | 0.0154
142 | ATGTACAA | -0.0603
143 | CTATGCAA | 0.0112
144 | CTCCAGTA | 0.0745
145 | ACAATATA | 0.17
146 | TAACCAGA | 0.0749
147 | ACTGCCAT | 0.0518
148 | CGCTCCTC | -0.292
149 | GCACGTAC | -0.0894
150 | ACACTTTC | 0.208

Row | Sequence | PBM E-score
151 | ATACAAAA | 0.201
152 | ATGCGAGC | -0.168
153 | ACTCTGCT | -0.0461
154 | CCACACTC | 0.133
155 | CCCCCTCA | -0.427
156 | CATAGGGA | -0.0487
157 | GCTGTGTA | -0.0713
158 | CTCTAAGC | 0.128
159 | ACAAAGAC | 0.0187
160 | CCGAATAG | 0.0011
161 | ACGCAGTG | -0.0997
162 | ACCCCAAC | -0.0236
163 | ACGTGGAT | 0.0134
164 | CATCAGTC | -0.0425
165 | ACCTAGGC | -0.201
166 | AAGCTCTC | -0.265
167 | AGTGGGGA | -0.274
168 | TTCCCGAA | 0.0119
169 | TCCTACGA | -0.118
170 | ACGCTATA | -0.0553
171 | ATATTTTG | 0.246
172 | ACTGTGTA | 0.106

From the supplement of paper PMC3334620
